Taken from: PubChem BioAssay AID1259308 (NCATS, 2017)
The deposit covers about 59,000 reagents; shown is an unselected part. About 1,510 of all reagents (2.6%) count as active. 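Calls use total luciferase alone and ignore viability, so some active siRNAs may act by altering cell number.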 Reagents against one gene are numbered here. Further read-outs or replicates are left out here.

- Purpose: 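Candidate targets for better recombinant protein yield in mammalian cells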 (primary screen)
- Cell system: human HEK293 embryonic kidney cells stably expressing firefly luciferase (HEK-CMV-Luc2-Hygro)
- Reagent: single siRNA against human genes, 0.8 pmol siRNA per well
- Duration: 72 h
- Measurement: 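Luciferase light (ONE-Glo) measured on one replicate plate set and viability (CellTiter-Glo) on the other, scaled to a negative control siRNA, with robust z-scores and luciferase per cell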
- Scale: total luciferase, z-score: higher = more reporter protein produced
- Active means: 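Active when the median/MAD z-score for overall luciferase is greater than 3; a gene was taken forward for validation with new siRNAs if at least two of its three siRNAs passed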
- Calls: active = raised luciferase; inactive = no rise

total luciferase, z-score, by target and reagent
DHCR24: #1 1.43 inactive; #2 -0.288 inactive; #3 -0.644 inactive
CMA1: #1 0.852 inactive; #2 0.697 inactive; #3 -0.112 inactive
PLAG1: #1 -0.365 inactive; #2 0.373 inactive; #3 -0.418 inactive
KMT2C: #1 -0.0657 inactive; #2 0.285 inactive; #3 -0.106 inactive
RACK1P1: #1 -1.41 inactive; #2 -0.263 inactive; #3 2.14 inactive
FLAD1: #1 -0.785 inactive; #2 0.169 inactive; #3 -0.136 inactive
PSMD9: #1 -0.12 inactive; #2 -1.05 inactive; #3 0.653 inactive
COLGALT2: #1 1.1 inactive; #2 0.391 inactive; #3 1.01 inactive
ZNF335: #1 2.41 inactive; #2 0.516 inactive; #3 -0.103 inactive
SSC4D: #1 -1.58 inactive; #2 -0.0167 inactive; #3 -1.23 inactive
CYP3A4: #1 2.28 inactive; #2 0.758 inactive; #3 1.25 inactive
RMP64: #1 -0.781 inactive; #2 0.271 inactive; #3 -1.67 inactive
MTCP1: #1 -0.563 inactive; #2 1.02 inactive; #3 1.26 inactive
PTPRN: #1 -0.882 inactive; #2 -1.11 inactive; #3 -0.756 inactive
LGALS3BP: #1 0.165 inactive; #2 0.512 inactive; #3 -0.364 inactive
MRNIP: #1 1.24 inactive; #2 1.3 inactive; #3 -0.676 inactive
SF3A2: #1 0.951 inactive; #2 2.22 inactive; #3 4.81 active
SLC25A48: #1 0.73 inactive; #2 1.52 inactive; #3 2.72 inactive
POU4F1: #1 0.582 inactive; #2 0.0736 inactive; #3 0.622 inactive
HMGN1P31: #1 0.105 inactive; #2 0.832 inactive; #3 1.21 inactive
RASSF6: #1 0.969 inactive; #2 0.23 inactive; #3 -1.92 inactive
GLOD5: #1 1.29 inactive; #2 -0.336 inactive; #3 -1.75 inactive
UBQLN4: #1 0.536 inactive; #2 1.35 inactive; #3 -0.589 inactive
STMN2: #1 -0.014 inactive; #2 0.0495 inactive; #3 2.29 inactive
WIF1: #1 -0.329 inactive; #2 -1.96 inactive; #3 -0.917 inactive

Records above called active, once more:
total luciferase, z-score, by target and reagent
SF3A2: #3 4.81 active
